Taken from: PubChem BioAssay AID504786 (Drosophila RNAi Screening Center, 2011)

Test: 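Positive regulators of HIF-driven reporter output in Drosophila cells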 (primary screen)
Cells: Drosophila S2 cells with a stable HIF luciferase reporter
Reagents: long dsRNA against Drosophila genes, about 0.2 µg dsRNA per well of a 384-well plate
Time to read-out: three days of knock-down, then 20 h of DFO before reading
Treatment: desferrioxamine (DFO) at 100 µM, an iron chelator that mimics hypoxia, for 20 h
Detection: 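Firefly luciferase driven by the mouse ldh-a hypoxia-response element, measured after 20 h of 100 µM DFO; z-scores per plate, higher means more signal lost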
Direction: z-score: higher = stronger loss of HIF reporter signal
The screen tested about 21,000 reagents; shown is an unselected part of those with a known target gene and a result. 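Primary screen; positive scores mean lost reporter signal, so the sign may be inverted from the usual convention.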 The numbers tell different reagents against one gene apart. Names joined by + are all predicted targets of the reagent.

no.	Target gene	reagent	z-score, replicate 1	z-score, replicate 2	z-score, replicate 3	z-score, replicate 4
1	Andorra (GeneID 32798)	1	-0.3	0.4		
2	Jasper (GeneID 43576)	1	-0.3	-0.5		
3	CG5850 (GeneID 34327)	1	-0.4	-0.6		
4	Poxn (GeneID 36741)	1	-0.2	-0.2		
5	Poxn (GeneID 36741)	2	-0.2	0.3		
6	Timp (GeneID 41248)	1	-0.3	-0.3		
7	mia (GeneID 40667)	1	-0.4	-0.2		
8	AdamTS-B (GeneID 31490)	1	-0.4	-0.5		
9	rn (GeneID 40879)	1	-0.1	-1.1		
10	rn (GeneID 40879)	2	-0.4	-0.8		
11	rn (GeneID 40879)	3	0	-0.1		
12	rn (GeneID 40879)	4	-0.4	-0.5		
13	TM9SF3 (GeneID 38635)	1	-0.5	-0.9		
14	Galphai (GeneID 38765)	1	-0.4	0		
15	Slc45-1 (GeneID 39055)	1	-0.2	-0.6		
16	Spn42De (GeneID 35602)	1	0.6	0.9		
17	CG42685 (GeneID 34854)	1	-0.2	-0.1	-0.2	-0.2
18	Elal (GeneID 42970)	1	-0.2	-0.3		
19	Rab4 + CG42239	1	-0.1	-0.3		
20	MP1 (GeneID 40541)	1	-0.3	-0.2	-0.5	-0.3
21	CG15563 (GeneID 43695)	1	0	0		
22	Tmem63 (GeneID 35779)	1	-0.3	0		
23	CG17724 (GeneID 246682)	1	-0.3	0.2		
24	Galk (GeneID 39031)	1	-0.3	-0.6		
25	SC35 (GeneID 53444)	1	5.7	2.1		
26	SC35 (GeneID 53444)	2	-0.3	0.7		
27	Ankle2 (GeneID 32732)	1	-0.4	-0.4		
28	Ankle2 (GeneID 32732)	2	-0.3	-0.2		
29	CG15651 (GeneID 37375)	1	-0.4	-0.6		
30	CG2865 (GeneID 31217)	1	-0.3	-0.1		
31	CG2865 (GeneID 31217)	2	2.8	2.1		
32	CG31141 (GeneID 318605)	1	-0.2	-0.1		
33	CG33303 (GeneID 2768916)	1	0.2	0.4		
34	CG9030 (GeneID 32427)	1	-0.3	-0.1		
35	CG14950 (retired record) (GeneID 38334)	1	-0.3	0.3		
36	CG2614 (GeneID 35326)	1	-0.3	-0.2		
37	CG1648 (GeneID 36009)	1	-0.3	-0.4	-0.5	-0.3
38	CG15531 (GeneID 43592)	1	-0.4	-0.3		
39	CG2962 (GeneID 31952)	1	-0.4	-0.3		
40	loh (GeneID 34435)	1	0.2	-0.2		
41	loh (GeneID 34435)	2	-0.2	0.1		
42	CG7394 (GeneID 39294)	1	0.3	0.3		

Reformatted: results already given
Target gene | reagent | z-score, replicate 1 | z-score, replicate 2 | z-score, replicate 3 | z-score, replicate 4
Andorra (GeneID 32798) | 1 | -0.3 | 0.4 | – | –
Jasper (GeneID 43576) | 1 | -0.3 | -0.5 | – | –
CG5850 (GeneID 34327) | 1 | -0.4 | -0.6 | – | –
Poxn (GeneID 36741) | 1 | -0.2 | -0.2 | – | –
Poxn (GeneID 36741) | 2 | -0.2 | 0.3 | – | –
Timp (GeneID 41248) | 1 | -0.3 | -0.3 | – | –

Further entries:
no.	Target gene	reagent	z-score, replicate 1	z-score, replicate 2	z-score, replicate 3	z-score, replicate 4
43	CG32262 (GeneID 38445)	1	-0.2	0.1		
44	CG33966 (GeneID 3885642)	1	-0.3	-0.5		
45	CG12780 (GeneID 35834)	1	-0.3	-0.3		
46	CG13561 (GeneID 37765)	1	-0.3	-0.4		
47	CG13272 (GeneID 35013)	1	-0.3	-0.5		
48	Rsbp15 (GeneID 41481)	1	0.2	0		
49	KrT95D (GeneID 42843)	1	-0.2	0.2		
50	CG11353 (GeneID 38560)	1	-0.3	-0.1		
51	CG7720 (GeneID 42257)	1	-0.3	0		
52	CG7720 (GeneID 42257)	2	-0.7	-0.4		
53	Peritrophin-15b (GeneID 50432)	1	-0.4	-0.4		
54	Fur1 (GeneID 47220)	1	3.2	3.4		
55	Fur1 (GeneID 47220)	2	1.8	1.4		
56	CG31008 (GeneID 318554)	1	-0.4	-0.4		
57	tbc (GeneID 318059)	1	-0.2	0.1		
58	ERR (GeneID 38912)	1	-0.4	-0.5		
59	CG14062 (GeneID 43389)	1	-0.3	-0.1		
60	CG5886 (GeneID 43125)	1	-0.4	-0.4		
61	eIF4EHP (GeneID 326255)	1	-0.5	-0.5		
62	eIF4EHP (GeneID 326255)	2	-0.4	-0.7		
63	SP2353 (GeneID 36771)	1	2.1	0.2		
64	CG15083 (GeneID 37175)	1	-0.2	0.7		
65	ewg (GeneID 30975)	1	-0.4	-0.5		
66	ebd2 (GeneID 40363)	1	-0.3	-0.3		
67	QC (GeneID 38663)	1	-0.2	-0.3		
68	CG4789 (GeneID 32668)	1	-0.3	-0.7		
69	RNF220 (GeneID 42690)	1	-0.3	-0.6		
70	CG14132 (GeneID 50290)	1	-0.3	-0.4		
71	CG13869 + CG11099	1	-0.2	-0.3		
72	CG13603 (GeneID 42838)	1	-0.1	-0.1		
73	Polr1E (GeneID 42201)	1	0.1	0		
74	Polr1E (GeneID 42201)	2	-0.2	-0.2		
75	CG11836 (GeneID 43007)	1	0	0.1		
76	spo (GeneID 38631)	1	-0.4	0		
77	CG11122 (GeneID 32046)	1	-0.3	0.1		
78	CG18810 (GeneID 59171)	1	-0.1	0		
79	CG4612 (GeneID 37914)	1	-0.2	-0.2		
80	MFS15 (GeneID 37168)	1	-0.2	0		
81	CG14568 (GeneID 40418)	1	-0.3	0.1		
82	CG10254 (GeneID 42793)	1	0	-0.1		
83	CG14380 (GeneID 41621)	1	-0.2	-0.4		
